# Data: the supplement of paper PMC10849652
# Protein sequences, listed by entry. Tags and fused reporters are not part of them. Lines headed by an entry give the natural chain unless they say otherwise; changes in a name come on top.
# UniProt P56645: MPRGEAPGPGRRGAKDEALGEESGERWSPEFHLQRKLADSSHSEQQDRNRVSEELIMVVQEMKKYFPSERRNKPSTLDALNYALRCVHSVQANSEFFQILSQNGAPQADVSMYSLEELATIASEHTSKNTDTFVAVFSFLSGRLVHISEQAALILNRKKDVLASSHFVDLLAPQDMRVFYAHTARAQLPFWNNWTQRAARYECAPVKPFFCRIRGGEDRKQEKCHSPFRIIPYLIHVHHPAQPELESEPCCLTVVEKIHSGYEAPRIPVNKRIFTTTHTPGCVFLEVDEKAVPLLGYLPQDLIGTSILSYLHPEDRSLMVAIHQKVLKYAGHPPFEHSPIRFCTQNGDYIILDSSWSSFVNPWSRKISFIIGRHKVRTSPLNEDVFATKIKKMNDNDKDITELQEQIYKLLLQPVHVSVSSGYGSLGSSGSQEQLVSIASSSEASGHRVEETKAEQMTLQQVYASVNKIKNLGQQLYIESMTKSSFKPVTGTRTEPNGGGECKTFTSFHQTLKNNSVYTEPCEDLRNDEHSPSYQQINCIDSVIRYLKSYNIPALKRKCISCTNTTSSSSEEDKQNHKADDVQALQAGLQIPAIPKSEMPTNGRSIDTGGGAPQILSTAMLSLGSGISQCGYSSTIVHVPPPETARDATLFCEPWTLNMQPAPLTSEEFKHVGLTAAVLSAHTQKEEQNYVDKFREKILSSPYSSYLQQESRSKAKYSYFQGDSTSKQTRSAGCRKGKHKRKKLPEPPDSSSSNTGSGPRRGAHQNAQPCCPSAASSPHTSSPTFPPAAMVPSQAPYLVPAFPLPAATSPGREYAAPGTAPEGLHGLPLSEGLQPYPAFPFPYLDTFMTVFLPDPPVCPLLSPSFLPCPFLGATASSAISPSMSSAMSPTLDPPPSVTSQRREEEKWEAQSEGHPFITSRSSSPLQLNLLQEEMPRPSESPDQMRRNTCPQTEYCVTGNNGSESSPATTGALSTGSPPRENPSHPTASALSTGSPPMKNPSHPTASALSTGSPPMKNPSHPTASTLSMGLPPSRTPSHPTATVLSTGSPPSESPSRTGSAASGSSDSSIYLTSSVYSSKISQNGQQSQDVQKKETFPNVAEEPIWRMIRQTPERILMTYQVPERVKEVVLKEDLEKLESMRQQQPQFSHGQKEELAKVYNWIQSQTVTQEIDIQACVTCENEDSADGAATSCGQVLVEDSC
# UniProt Q8IZL8: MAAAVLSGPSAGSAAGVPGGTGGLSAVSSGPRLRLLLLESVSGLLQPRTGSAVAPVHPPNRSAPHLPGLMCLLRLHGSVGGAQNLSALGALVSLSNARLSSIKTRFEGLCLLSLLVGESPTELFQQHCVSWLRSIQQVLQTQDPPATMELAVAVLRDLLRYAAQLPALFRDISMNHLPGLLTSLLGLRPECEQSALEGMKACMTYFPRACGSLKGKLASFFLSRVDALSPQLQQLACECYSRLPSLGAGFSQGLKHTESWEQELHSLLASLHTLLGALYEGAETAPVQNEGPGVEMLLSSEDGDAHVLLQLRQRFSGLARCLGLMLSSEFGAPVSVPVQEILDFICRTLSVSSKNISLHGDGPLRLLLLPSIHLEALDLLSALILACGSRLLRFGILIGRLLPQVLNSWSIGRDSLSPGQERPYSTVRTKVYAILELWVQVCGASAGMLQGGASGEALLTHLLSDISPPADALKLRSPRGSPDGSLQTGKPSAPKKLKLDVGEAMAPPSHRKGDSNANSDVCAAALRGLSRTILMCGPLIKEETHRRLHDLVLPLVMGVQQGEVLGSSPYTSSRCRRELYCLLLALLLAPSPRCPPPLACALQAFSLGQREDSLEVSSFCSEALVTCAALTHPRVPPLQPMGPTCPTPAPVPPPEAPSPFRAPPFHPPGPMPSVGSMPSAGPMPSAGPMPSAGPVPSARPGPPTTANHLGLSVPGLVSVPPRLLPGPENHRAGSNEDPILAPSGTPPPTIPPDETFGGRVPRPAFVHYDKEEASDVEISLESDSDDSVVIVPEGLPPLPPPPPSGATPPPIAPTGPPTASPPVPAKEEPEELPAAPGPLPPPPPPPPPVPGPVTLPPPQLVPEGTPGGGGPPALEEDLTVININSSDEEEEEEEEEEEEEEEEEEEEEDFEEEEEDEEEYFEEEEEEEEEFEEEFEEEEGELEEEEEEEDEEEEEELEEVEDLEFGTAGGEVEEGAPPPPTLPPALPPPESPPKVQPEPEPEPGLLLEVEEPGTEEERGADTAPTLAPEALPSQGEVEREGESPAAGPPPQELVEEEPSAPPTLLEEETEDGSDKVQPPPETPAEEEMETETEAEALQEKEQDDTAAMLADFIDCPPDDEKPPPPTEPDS
# UniProt Q96GD0: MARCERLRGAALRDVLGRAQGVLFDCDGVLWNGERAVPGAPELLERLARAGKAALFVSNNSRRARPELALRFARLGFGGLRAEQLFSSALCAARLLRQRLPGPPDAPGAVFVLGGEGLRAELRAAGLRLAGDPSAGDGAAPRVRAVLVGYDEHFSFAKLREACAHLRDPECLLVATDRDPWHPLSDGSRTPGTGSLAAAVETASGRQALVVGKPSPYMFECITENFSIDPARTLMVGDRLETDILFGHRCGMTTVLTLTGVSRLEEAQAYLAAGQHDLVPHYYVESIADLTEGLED
# UniProt P18669: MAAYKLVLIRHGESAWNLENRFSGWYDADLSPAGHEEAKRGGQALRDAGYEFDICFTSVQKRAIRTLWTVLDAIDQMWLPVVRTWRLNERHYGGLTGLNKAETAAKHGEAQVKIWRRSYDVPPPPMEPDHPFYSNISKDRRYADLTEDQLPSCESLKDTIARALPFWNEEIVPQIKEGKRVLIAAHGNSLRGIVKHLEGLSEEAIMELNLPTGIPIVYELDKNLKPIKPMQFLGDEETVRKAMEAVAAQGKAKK
# UniProt Q8WW12: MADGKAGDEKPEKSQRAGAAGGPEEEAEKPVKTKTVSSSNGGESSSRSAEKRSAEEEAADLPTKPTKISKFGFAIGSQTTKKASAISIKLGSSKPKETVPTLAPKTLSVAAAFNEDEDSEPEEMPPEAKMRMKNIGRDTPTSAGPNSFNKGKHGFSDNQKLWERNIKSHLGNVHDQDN
# UniProt O00408, whole entry, looked up: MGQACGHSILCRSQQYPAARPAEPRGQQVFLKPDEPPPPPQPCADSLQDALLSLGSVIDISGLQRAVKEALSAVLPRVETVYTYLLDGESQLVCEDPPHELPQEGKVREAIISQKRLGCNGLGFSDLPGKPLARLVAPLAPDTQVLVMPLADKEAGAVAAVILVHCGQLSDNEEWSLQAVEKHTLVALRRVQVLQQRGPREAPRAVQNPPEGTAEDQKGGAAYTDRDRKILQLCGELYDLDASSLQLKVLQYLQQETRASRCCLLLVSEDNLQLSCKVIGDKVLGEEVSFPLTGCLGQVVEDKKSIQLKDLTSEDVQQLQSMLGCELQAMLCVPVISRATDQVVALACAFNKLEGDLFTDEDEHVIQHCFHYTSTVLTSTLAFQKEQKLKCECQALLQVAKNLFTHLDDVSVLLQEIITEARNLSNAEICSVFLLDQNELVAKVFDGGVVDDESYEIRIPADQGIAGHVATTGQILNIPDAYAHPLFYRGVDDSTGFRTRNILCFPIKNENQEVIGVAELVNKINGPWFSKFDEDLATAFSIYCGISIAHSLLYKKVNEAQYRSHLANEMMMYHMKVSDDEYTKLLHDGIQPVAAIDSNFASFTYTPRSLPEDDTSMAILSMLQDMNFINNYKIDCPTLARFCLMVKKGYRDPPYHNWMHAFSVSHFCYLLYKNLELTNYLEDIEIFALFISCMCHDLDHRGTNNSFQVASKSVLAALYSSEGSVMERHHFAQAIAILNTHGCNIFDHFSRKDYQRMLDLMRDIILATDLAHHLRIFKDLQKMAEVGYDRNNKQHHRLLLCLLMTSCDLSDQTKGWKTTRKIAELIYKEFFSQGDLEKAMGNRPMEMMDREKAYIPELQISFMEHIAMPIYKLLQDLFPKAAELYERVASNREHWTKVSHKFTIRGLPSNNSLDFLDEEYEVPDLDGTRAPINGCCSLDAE
# UniProt P05166: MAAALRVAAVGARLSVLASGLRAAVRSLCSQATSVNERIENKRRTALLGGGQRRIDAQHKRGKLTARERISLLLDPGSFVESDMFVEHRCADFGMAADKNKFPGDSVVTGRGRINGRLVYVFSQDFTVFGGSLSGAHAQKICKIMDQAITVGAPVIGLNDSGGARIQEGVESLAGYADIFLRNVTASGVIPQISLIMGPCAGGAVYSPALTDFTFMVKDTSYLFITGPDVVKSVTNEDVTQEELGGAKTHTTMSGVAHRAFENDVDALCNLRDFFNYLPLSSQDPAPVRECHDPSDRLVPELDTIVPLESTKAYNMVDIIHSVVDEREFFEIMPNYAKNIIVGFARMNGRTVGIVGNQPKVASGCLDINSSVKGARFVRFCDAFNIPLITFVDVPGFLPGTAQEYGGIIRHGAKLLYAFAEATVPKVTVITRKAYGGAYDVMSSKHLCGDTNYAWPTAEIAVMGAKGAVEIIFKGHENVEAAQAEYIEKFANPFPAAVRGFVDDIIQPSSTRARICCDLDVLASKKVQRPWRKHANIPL
# UniProt Q96AQ6: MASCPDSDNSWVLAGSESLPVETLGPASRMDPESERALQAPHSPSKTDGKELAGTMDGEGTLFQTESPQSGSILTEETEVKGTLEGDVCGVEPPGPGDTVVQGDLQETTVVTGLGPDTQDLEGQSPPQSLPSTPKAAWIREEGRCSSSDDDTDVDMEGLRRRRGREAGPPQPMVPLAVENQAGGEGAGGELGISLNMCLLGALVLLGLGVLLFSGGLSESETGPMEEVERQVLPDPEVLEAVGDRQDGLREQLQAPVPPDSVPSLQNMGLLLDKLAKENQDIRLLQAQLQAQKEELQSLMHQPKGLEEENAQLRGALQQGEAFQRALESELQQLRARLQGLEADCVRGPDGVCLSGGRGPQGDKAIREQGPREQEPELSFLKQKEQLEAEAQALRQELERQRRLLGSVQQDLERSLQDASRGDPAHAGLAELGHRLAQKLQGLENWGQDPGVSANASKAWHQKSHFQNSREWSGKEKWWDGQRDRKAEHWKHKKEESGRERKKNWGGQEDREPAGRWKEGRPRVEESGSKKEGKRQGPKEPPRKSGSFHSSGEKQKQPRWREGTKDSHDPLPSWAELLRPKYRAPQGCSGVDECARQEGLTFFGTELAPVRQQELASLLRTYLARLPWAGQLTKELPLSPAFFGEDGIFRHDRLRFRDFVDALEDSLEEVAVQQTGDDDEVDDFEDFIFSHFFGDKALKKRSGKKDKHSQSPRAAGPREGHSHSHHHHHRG
# UniProt Q8NEN9: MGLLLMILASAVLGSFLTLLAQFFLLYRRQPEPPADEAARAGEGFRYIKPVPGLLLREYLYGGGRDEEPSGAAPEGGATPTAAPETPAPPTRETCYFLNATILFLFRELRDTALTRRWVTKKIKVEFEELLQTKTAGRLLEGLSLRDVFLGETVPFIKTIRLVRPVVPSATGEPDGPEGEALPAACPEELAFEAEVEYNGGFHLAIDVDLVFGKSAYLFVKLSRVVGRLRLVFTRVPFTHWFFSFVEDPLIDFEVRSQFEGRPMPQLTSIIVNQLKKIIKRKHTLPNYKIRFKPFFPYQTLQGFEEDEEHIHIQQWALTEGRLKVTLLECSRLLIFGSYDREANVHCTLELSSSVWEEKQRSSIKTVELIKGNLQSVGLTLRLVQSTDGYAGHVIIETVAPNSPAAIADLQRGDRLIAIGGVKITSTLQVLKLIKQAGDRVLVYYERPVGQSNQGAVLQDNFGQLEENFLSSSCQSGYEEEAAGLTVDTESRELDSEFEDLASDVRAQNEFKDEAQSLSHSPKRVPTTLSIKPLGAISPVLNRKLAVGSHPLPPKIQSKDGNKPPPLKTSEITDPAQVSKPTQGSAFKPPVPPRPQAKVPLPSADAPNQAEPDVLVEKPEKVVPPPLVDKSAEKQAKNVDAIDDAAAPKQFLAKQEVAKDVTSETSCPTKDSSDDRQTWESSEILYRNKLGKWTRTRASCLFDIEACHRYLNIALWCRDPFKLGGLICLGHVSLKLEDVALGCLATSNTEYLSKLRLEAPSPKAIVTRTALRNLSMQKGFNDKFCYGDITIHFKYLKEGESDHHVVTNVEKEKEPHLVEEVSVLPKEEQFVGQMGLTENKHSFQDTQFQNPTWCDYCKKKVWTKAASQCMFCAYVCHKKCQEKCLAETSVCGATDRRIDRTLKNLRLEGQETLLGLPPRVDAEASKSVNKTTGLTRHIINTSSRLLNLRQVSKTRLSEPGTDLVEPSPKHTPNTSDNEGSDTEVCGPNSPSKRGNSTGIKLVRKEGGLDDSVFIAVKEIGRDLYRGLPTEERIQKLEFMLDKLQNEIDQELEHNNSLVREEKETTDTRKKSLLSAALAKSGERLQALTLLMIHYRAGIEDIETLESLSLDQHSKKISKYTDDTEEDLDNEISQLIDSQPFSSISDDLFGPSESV
# The list shows a part of the results.
# Experiments:
# Experiment in all cases: log2 fold change, soluble protein after heating vs DMSO (PISA); higher = thermal stabilisation; K562 lysate, 10 uM; active = over 0.2 and 3.5 SD of the protein, either way, in both replicates (recomputed)
# [1] = compound: CCCS(=O)(=O)Nc1ccc(F)c(C(=O)c2c[nH]c3ncc(-c4ccc(Cl)cc4)cc23)c1F [vemurafenib]
# Summary of the method: (§1)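 Dounce homogenisation of K562 pellets in PBS pH 7.4 with 1 mM MgCl2 produced a crude extract, used at 1 mg/mL protein. Exposure to 10 μM compound lasted 30 min, and aliquots were then heated for 3 min across 48°C-58°C, pooled and brought to 0.5% NP-40 at 4°C. The supernatant after 21,000xg for 90 min was quantified by TMTpro 16plex LC-MS/MS with channel sums equalised. Duplicate values are given as log-two fold change in thermal stability relative to solvent controls.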
# [2] = compound: CCCS(=O)(=O)Nc1ccc(F)c(C(=O)c2c[nH]c3ncc(Cl)cc23)c1F
# Summary of the method: as §1
# [3] = compound: CCN(CCCOc1ccc2c(Nc3cc(CC(=O)Nc4cccc(F)c4)[nH]n3)ncnc2c1)CCOP(=O)(O)O [barasertib]
# Summary of the method: as §1
# [4] = compound: CC[C@@H]1C(=O)N(C)c2cnc(Nc3ccc(C(=O)NC4CCN(C)CC4)cc3OC)nc2N1C1CCCC1
# Summary of the method: as §1
# [5] = compound: CC[C@@H]1C(=O)N(C)c2cnc(Nc3ccc(C(=O)N[C@H]4CC[C@H](N5CCN(CC6CC6)CC5)CC4)cc3OC)nc2N1C(C)C [volasertib]
# Summary of the method: as §1
# [6] = compound: CCn1c(C(=O)N(C2CC2)C2CC2)cc2c3c(ncn3C)c(Nc3cc(C)n(C)n3)nc21
# Summary of the method: as §1
# [7] = compound: CCn1cc(-c2ccnc3[nH]c(-c4cccc(CN(C)C)c4)cc23)c(-c2ccc(NC(=O)N(C)C)cc2)n1
# Summary of the method: as §1
# [8] = compound: CN1CCC(CNc2ccc3ncc(-c4cccc(OC(F)(F)F)c4)n3n2)CC1
# Summary of the method: as §1
# [9] = compound: CN1CCN(CCOc2cc(OC3CCOCC3)c3c(Nc4c(Cl)ccc5c4OCO5)ncnc3c2)CC1 [saracatinib]
# Summary of the method: as §1
# [10] = compound: CN1CCN(c2nc(C3=C(c4c[nH]c5ccccc45)C(=O)NC3=O)c3ccccc3n2)CC1 [sotrastaurin]
# Summary of the method: as §1
# [11] = compound: CN1CC[C@H](c2c(O)cc(O)c3c(=O)cc(-c4ccccc4Cl)oc23)[C@H](O)C1 [alvocidib]
# Summary of the method: as §1
# [12] = compound: CN1CCc2c(c3ccccc3n2Cc2ccc(C(=O)NO)cc2)C1 [Tubastatin A]
# Summary of the method: as §1
# [13] = compound: CNC(=O)C1=CC=CC=C1NC2=NC(=NC=C2Cl)NC3=C(C=C(C=C3)N4CCOCC4)OC
# Summary of the method: as §1
# [14] = compound: CNC(=O)c1ccc(Nc2ncc(C(F)(F)F)c(NCc3nccnc3N(C)S(C)(=O)=O)n2)cc1 [defactinib]
# Summary of the method: as §1
# [15] = compound: CNc1nc(-c2ccc3c(N)n[nH]c3c2)cc(N2C[C@@H](C(=O)NC3CCCCC3)CC[C@H]2C)n1
# Summary of the method: as §1
# [16] = compound: COC(=O)N[C@@H](C)CNc1nccc(-c2cn(C(C)C)nc2-c2cc(Cl)cc(NS(C)(=O)=O)c2F)n1 [encorafenib]
# Summary of the method: as §1
# [17] = compound: COC(=O)[C@H](CCSC)NC(=O)C1=C(C=C(C=C1)NC[C@H](CS)N)C2=CC=CC=C2
# Summary of the method: as §1
# [18] = compound: COc1cc(Nc2ncc3c(n2)-c2ccc(Cl)cc2C(c2c(F)cccc2OC)=NC3)ccc1C(=O)O [alisertib]
# Summary of the method: as §1
# [19] = compound: COc1cc2nc(-c3cc(F)ccc3O)nc(N[C@@H]3CNC[C@H]3C(C)(C)O)c2cc1OC
# Summary of the method: as §1
# [20] = compound: COc1cc2ncnc(Nc3ccc(F)c(Cl)c3)c2cc1OCCCN1CCOCC1 [gefitinib]
# Summary of the method: as §1
Target,log2 fold change [1],log2 fold change [2],log2 fold change [3],log2 fold change [4],log2 fold change [5],log2 fold change [6],log2 fold change [7],log2 fold change [8],log2 fold change [9],log2 fold change [10],log2 fold change [11],log2 fold change [12],log2 fold change [13],log2 fold change [14],log2 fold change [15],log2 fold change [16],log2 fold change [17],log2 fold change [18],log2 fold change [19],log2 fold change [20]
PER3 isoform 2 (UniProt P56645),inactive: -0.047,inactive: 0.047,inactive: 0.084,inactive: -0.008,inactive: -0.004,inactive: -0.021,inactive: -0.01,inactive: 0.024,inactive: -0.01,inactive: -0.006,inactive: 0.022,inactive: 0.021,inactive: 0.025,inactive: 0.11,inactive: -0.013,inactive: 0.006,inactive: -0.052,inactive: 0.005,inactive: -0.001,inactive: -0.048
PELP1 (UniProt Q8IZL8),inactive: -0.04,inactive: 0.007,inactive: 0,inactive: 0.005,inactive: 0.024,inactive: 0.036,inactive: 0.237,inactive: -0.009,inactive: 0.089,inactive: 0.024,inactive: -0.001,inactive: -0.042,inactive: -0.048,inactive: 0.083,inactive: 0.112,inactive: 0.006,inactive: 0.052,inactive: -0.003,inactive: -0.062,inactive: -0.085
PARN (UniProt O95453),inactive: -0.036,inactive: 0.017,inactive: 0.025,inactive: 0.012,inactive: -0.021,inactive: -0.001,inactive: 0.085,inactive: -0.032,inactive: 0.009,inactive: 0.022,inactive: 0,inactive: 0.009,inactive: -0.01,inactive: -0.002,inactive: -0.016,inactive: 0.007,inactive: -0.006,inactive: -0.039,inactive: -0.013,inactive: 0.015
PARP2 (UniProt Q9UGN5),inactive: 0.011,inactive: -0.005,inactive: 0.014,inactive: -0.141,inactive: 0.012,inactive: 0.04,inactive: 0.097,inactive: 0.003,inactive: -0.067,inactive: 0.049,inactive: -0.023,inactive: -0.066,inactive: -0.03,inactive: 0.08,inactive: -0.039,inactive: 0.067,inactive: 0.042,inactive: 0.008,inactive: -0.008,inactive: -0.01
PDXP (UniProt Q96GD0),inactive: 0.009,inactive: -0.017,inactive: 0.008,inactive: 0.036,inactive: 0.029,inactive: -0.028,inactive: -0.074,inactive: 0.069,inactive: 0.003,inactive: -0.044,inactive: -0.016,inactive: 0.04,inactive: 0.006,inactive: -0.039,inactive: 0.024,inactive: -0.029,inactive: -0.003,inactive: -0.001,inactive: 0.011,inactive: 0.018
PCYOX1 (UniProt Q9UHG3),inactive: -0.01,inactive: -0.013,inactive: 0.011,inactive: -0.018,inactive: 0.013,inactive: -0.01,inactive: 0.025,inactive: 0.023,inactive: 0.001,inactive: 0.024,inactive: 0.012,inactive: 0.019,inactive: -0.022,inactive: 0.001,inactive: -0.088,inactive: 0.009,inactive: -0.075,inactive: -0.014,inactive: 0.005,inactive: 0.006
PDIA3 (UniProt P30101),inactive: -0.039,inactive: -0.021,inactive: -0.035,inactive: -0.013,inactive: 0.007,inactive: 0.016,inactive: 0.03,inactive: -0.038,inactive: -0.02,inactive: 0.008,inactive: 0.031,inactive: 0.013,inactive: -0.016,inactive: -0.017,inactive: -0.012,inactive: -0.01,inactive: -0.047,inactive: 0.017,inactive: 0.007,inactive: -0.018
PGAM1 (UniProt P18669),inactive: -0.02,inactive: 0.035,inactive: -0.061,inactive: 0.007,inactive: -0.007,inactive: -0.01,inactive: 0.323,inactive: -0.026,inactive: -0.012,inactive: -0.026,inactive: 0.019,inactive: 0.029,inactive: 0.019,inactive: 0.01,inactive: 0.015,inactive: -0.018,inactive: -0.036,inactive: -0.028,inactive: -0.006,inactive: -0.016
PCNP (UniProt Q8WW12),inactive: -0.001,inactive: -0.004,inactive: -0.054,inactive: 0.06,inactive: 0.044,inactive: -0.054,inactive: -0.132,inactive: 0.09,inactive: -0.004,inactive: -0.058,inactive: -0.038,inactive: 0.042,inactive: -0.004,inactive: -0.031,inactive: 0.075,inactive: -0.017,inactive: -0.01,inactive: -0.01,inactive: 0.034,inactive: 0.018
PCBP2 isoform 8 (UniProt Q15366),inactive: 0.078,inactive: 0.051,inactive: 0.016,inactive: 0.001,inactive: -0.05,inactive: -0.152,inactive: 0.054,inactive: -0.003,inactive: -0.018,inactive: -0.045,inactive: -0.01,inactive: -0.133,inactive: 0.022,inactive: 0,inactive: 0.079,inactive: 0.053,inactive: 0.108,inactive: -0.013,inactive: -0.085,inactive: -0.122
PDE2A (UniProt O00408),active: 0.374,inactive: -0.015,inactive: -0.015,inactive: -0.215,inactive: 0.041,inactive: -0.173,inactive: -0.135,inactive: 0.023,inactive: -0.042,inactive: 0.039,inactive: 0.038,inactive: 0.275,inactive: 0.044,inactive: -0.24,inactive: 0.028,inactive: 0.11,inactive: -0.019,inactive: 0.014,inactive: 0.048,inactive: -0.01
PCCB (UniProt P05166),inactive: 0.014,inactive: 0.019,inactive: 0.007,inactive: 0.03,inactive: -0.004,inactive: -0.008,inactive: -0.04,inactive: 0.06,inactive: 0.008,inactive: 0.005,inactive: -0.018,inactive: 0.037,inactive: -0.016,inactive: 0.026,inactive: -0.015,inactive: 0.019,inactive: -0.022,inactive: 0,inactive: -0.023,inactive: 0.045
PBXIP1 (UniProt Q96AQ6),inactive: 0.031,inactive: 0.037,inactive: 0.004,inactive: 0.072,inactive: -0.019,inactive: 0.002,inactive: 0.065,inactive: 0.008,inactive: 0.072,inactive: -0.022,inactive: -0.029,inactive: 0.012,inactive: -0.01,inactive: 0.005,inactive: 0.062,inactive: 0.042,inactive: -0.09,inactive: 0.013,inactive: 0.008,inactive: 0.008
PEX16 isoform 2 (UniProt Q9Y5Y5),inactive: -0.085,inactive: 0.059,inactive: -0.006,inactive: -0.039,inactive: 0.038,inactive: -0.017,inactive: -0.125,inactive: -0.383,inactive: 0.086,inactive: 0.014,inactive: -0.119,inactive: -0.137,inactive: 0.061,inactive: 0.054,inactive: -0.046,inactive: 0.053,inactive: 0.068,inactive: -0.013,inactive: -0.13,inactive: 0.107
PDZD8 (UniProt Q8NEN9),inactive: 0.053,inactive: -0.01,inactive: -0.021,inactive: 0.089,inactive: -0.001,inactive: 0.003,inactive: -0.017,inactive: -0.008,inactive: 0.027,inactive: -0.024,inactive: -0.017,inactive: -0.009,inactive: -0.012,inactive: -0.031,inactive: 0.037,inactive: 0.021,inactive: -0.028,inactive: -0.002,inactive: 0.041,inactive: 0
PAXX (UniProt Q9BUH6),inactive: 0.014,inactive: -0.014,inactive: -0.044,inactive: 0.008,inactive: 0.054,inactive: 0.012,inactive: -0.005,inactive: 0.047,inactive: -0.009,inactive: 0.043,inactive: 0.02,inactive: -0.007,inactive: 0.042,inactive: -0.032,inactive: -0.024,inactive: 0.017,inactive: -0.04,inactive: -0.015,inactive: 0.014,inactive: -0.01

# Two successive records out of the list so far, for reference:
Target,log2 fold change [1],log2 fold change [2],log2 fold change [3],log2 fold change [4],log2 fold change [5],log2 fold change [6],log2 fold change [7],log2 fold change [8],log2 fold change [9],log2 fold change [10],log2 fold change [11],log2 fold change [12],log2 fold change [13],log2 fold change [14],log2 fold change [15],log2 fold change [16],log2 fold change [17],log2 fold change [18],log2 fold change [19],log2 fold change [20]
PGAM1 (UniProt P18669),inactive: -0.02,inactive: 0.035,inactive: -0.061,inactive: 0.007,inactive: -0.007,inactive: -0.01,inactive: 0.323,inactive: -0.026,inactive: -0.012,inactive: -0.026,inactive: 0.019,inactive: 0.029,inactive: 0.019,inactive: 0.01,inactive: 0.015,inactive: -0.018,inactive: -0.036,inactive: -0.028,inactive: -0.006,inactive: -0.016
PCNP (UniProt Q8WW12),inactive: -0.001,inactive: -0.004,inactive: -0.054,inactive: 0.06,inactive: 0.044,inactive: -0.054,inactive: -0.132,inactive: 0.09,inactive: -0.004,inactive: -0.058,inactive: -0.038,inactive: 0.042,inactive: -0.004,inactive: -0.031,inactive: 0.075,inactive: -0.017,inactive: -0.01,inactive: -0.01,inactive: 0.034,inactive: 0.018
